Reference: patent US9309242B2, “Substituted pyrido[2,3-b]pyrazines as FGFR kinase inhibitors” (priority 2011, dated 2016)
The match of structure and compound is tentative.

The chains behind the UniProt entries cited, without tags or fusion partners. Where a name states a change or a piece, a line headed by the entry shows the natural chain unless it says otherwise. Residues count along the entry.
UniProt P11362, whole entry: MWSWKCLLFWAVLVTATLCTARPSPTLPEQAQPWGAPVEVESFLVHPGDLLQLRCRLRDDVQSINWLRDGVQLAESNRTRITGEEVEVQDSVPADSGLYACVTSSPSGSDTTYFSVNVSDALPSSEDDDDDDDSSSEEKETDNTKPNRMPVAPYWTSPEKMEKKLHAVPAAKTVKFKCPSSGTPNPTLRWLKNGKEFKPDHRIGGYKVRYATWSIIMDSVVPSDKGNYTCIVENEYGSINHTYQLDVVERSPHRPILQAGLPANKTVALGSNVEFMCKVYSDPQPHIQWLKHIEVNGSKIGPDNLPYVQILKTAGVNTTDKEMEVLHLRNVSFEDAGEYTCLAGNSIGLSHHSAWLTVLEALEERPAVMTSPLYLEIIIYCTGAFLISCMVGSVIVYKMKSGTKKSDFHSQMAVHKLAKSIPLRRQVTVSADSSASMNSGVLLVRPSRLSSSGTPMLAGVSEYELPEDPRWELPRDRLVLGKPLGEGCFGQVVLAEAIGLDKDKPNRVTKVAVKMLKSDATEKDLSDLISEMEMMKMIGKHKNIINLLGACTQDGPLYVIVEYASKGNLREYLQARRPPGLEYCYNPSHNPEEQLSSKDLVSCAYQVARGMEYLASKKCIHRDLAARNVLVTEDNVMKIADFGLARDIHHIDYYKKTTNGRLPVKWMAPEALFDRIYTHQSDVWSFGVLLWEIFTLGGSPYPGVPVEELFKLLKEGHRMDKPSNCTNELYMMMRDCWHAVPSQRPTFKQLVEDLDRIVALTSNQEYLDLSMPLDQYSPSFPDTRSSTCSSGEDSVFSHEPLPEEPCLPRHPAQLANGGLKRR
UniProt P11362, 22-822 limits assumed: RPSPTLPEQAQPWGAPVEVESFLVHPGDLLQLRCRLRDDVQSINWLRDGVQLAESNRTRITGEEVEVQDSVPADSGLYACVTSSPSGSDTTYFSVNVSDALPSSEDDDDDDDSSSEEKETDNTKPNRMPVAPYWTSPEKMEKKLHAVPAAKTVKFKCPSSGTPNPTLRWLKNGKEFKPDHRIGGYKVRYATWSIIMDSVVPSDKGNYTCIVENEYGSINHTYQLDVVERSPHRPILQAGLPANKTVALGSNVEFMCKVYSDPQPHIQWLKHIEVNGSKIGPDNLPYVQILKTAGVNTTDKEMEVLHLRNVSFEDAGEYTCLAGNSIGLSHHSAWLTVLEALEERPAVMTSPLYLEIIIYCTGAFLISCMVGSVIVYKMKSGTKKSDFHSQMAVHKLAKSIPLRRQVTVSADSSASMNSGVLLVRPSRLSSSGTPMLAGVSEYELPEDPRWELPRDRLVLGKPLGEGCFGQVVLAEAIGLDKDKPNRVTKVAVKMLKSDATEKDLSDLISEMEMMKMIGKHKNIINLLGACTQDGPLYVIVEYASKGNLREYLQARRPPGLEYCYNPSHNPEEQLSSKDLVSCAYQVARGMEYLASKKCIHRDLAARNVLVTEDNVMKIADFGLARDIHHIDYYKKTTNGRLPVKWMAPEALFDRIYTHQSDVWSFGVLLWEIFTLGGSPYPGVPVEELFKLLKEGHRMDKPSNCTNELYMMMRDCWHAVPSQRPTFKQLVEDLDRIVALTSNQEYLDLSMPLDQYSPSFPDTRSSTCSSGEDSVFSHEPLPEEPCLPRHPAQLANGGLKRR
UniProt P35968, whole entry: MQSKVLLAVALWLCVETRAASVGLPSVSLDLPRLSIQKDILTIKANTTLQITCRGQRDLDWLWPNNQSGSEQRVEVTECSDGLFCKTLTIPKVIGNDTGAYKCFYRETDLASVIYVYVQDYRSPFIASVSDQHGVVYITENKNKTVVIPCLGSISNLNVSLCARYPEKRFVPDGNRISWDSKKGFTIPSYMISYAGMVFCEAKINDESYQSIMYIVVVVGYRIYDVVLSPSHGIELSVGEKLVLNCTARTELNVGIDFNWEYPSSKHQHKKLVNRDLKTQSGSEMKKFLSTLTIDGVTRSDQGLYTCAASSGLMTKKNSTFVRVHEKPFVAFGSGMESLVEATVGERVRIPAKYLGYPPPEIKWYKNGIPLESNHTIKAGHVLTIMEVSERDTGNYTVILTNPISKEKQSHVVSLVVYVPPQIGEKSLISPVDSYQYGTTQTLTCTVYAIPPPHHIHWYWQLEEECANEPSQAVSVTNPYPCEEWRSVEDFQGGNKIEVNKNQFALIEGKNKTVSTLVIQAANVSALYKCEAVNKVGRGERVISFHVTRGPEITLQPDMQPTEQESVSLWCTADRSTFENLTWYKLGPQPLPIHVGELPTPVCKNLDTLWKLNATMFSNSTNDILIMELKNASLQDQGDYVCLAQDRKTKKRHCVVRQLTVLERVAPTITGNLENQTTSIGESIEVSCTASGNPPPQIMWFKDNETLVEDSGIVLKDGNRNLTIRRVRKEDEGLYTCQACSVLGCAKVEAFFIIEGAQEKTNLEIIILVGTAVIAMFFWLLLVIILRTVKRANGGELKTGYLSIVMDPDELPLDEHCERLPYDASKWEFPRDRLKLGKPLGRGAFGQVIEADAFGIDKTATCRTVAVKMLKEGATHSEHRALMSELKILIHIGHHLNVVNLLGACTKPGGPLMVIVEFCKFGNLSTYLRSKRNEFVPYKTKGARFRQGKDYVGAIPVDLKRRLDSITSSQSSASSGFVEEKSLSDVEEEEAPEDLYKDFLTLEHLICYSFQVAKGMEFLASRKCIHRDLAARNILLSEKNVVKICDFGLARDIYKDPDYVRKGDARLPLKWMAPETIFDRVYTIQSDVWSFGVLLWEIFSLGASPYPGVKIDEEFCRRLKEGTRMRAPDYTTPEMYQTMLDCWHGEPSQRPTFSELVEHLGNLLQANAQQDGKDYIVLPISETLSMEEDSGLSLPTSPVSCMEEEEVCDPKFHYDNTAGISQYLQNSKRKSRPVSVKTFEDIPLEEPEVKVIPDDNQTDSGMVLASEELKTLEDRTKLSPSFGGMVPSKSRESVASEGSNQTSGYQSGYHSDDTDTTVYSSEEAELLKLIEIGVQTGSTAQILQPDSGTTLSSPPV
UniProt P22607, whole entry: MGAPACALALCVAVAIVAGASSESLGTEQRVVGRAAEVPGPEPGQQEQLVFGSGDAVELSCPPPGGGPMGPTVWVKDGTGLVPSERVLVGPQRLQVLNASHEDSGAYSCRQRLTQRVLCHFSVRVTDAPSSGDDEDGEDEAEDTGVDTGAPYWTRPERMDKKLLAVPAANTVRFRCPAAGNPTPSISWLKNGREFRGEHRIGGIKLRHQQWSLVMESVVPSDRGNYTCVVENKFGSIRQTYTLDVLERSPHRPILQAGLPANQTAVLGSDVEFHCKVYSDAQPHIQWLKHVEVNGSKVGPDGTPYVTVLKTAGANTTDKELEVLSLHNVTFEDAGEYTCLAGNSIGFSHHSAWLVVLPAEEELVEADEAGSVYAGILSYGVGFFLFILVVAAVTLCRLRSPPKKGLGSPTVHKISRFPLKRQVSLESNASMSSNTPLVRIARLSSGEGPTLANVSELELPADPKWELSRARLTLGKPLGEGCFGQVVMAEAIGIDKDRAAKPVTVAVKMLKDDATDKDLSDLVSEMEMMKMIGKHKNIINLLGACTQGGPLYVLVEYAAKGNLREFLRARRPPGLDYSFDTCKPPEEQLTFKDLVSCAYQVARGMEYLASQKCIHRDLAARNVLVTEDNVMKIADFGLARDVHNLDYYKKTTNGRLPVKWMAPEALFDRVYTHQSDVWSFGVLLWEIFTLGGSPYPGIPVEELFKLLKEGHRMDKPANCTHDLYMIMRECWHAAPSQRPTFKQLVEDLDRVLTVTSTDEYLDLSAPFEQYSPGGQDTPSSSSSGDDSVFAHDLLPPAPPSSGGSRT
UniProt P22607, 23-806 limits assumed: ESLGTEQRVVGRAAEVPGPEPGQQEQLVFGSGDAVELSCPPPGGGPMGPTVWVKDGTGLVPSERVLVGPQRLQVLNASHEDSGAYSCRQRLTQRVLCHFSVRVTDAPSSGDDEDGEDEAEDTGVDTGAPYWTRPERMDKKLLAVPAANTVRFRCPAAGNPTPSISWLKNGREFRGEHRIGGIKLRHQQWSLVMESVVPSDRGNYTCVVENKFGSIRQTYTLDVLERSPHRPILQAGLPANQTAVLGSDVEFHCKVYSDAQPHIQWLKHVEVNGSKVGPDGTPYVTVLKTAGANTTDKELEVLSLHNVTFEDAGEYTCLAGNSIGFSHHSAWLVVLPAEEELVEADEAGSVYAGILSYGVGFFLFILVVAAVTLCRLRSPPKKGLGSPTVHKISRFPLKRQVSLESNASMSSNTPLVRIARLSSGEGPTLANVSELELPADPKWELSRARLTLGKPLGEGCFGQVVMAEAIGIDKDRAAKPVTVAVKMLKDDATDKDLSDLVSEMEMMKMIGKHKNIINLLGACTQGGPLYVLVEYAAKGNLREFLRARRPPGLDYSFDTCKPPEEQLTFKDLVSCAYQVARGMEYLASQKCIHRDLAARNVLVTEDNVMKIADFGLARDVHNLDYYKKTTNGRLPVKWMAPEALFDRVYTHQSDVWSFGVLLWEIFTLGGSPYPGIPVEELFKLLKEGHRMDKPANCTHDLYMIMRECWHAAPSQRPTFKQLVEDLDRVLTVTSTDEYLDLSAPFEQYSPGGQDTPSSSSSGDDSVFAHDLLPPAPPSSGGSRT
UniProt P22455, whole entry: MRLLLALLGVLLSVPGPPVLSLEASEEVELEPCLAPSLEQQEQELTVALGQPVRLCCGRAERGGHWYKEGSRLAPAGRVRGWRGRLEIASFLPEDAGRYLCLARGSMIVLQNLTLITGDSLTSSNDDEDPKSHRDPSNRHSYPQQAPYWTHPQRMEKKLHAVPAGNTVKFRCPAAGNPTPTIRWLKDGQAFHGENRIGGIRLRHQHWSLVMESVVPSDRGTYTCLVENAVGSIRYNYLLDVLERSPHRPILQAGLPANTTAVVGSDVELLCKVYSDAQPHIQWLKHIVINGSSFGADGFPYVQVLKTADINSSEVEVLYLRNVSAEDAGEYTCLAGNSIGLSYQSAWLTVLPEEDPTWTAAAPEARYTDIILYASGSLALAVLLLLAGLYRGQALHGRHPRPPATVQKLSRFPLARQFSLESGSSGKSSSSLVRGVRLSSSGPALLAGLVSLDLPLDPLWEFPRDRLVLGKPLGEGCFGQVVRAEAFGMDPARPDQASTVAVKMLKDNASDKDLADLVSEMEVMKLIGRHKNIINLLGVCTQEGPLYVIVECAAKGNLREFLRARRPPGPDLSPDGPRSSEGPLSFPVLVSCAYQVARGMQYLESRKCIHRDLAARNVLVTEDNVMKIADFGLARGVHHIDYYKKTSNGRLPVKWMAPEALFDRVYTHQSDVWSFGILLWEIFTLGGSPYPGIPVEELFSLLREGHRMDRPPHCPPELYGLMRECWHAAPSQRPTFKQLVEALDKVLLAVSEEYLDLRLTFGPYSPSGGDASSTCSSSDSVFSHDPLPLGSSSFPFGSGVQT
UniProt P22455, 22-802 limits assumed: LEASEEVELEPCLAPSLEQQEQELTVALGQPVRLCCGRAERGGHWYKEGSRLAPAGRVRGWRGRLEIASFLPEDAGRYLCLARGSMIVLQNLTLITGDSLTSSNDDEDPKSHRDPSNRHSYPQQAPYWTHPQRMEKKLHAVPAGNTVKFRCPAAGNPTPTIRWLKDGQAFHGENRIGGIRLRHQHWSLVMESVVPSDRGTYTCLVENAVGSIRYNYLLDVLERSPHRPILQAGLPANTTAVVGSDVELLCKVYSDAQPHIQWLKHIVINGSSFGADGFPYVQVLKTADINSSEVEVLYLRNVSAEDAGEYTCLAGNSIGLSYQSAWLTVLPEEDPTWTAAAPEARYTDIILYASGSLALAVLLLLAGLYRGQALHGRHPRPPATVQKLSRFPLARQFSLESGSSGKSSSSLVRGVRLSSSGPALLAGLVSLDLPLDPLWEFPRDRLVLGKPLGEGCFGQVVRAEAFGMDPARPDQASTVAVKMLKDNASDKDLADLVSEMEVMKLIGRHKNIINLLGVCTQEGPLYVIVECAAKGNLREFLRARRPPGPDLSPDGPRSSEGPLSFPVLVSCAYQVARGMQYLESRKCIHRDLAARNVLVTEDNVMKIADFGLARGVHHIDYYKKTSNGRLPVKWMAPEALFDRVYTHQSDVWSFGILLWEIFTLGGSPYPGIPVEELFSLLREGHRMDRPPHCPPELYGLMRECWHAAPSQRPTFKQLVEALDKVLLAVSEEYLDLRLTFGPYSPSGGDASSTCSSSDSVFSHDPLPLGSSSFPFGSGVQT

How the values were obtained:
[1] = test system: Ba/F3-FGFR3-transfected cells; experiment: Ba/F3-FGFR3 (plus IL3) cellular proliferation assay, counterscreen with 10 ng/ml murine IL3; type: cell-based; details: plus IL3 (10 ng/ml murine IL3, counterscreen)
Procedure: Ba/F3-FGFR3 (Minus IL3 or Plus IL3) (Cellular Proliferation Assay)
(§1) In a 384 well plate, 100 nl of compound dilution in DMSO was sprayed before adding 50 μl cell culture medium (phenol red free RPMI-1640, 10% FBS, 2 mM L-Glutamine and 50 μg/ml Gentamycin) containing 20000 cells per well of Ba/F3-FGFR3-transfected cells. Cells were put in an incubator at 37° C. and 5% CO2. After 24 hours, 10 μl of Alamar Blue solution (0.5 mM K3Fe(CN)6, 0.5 mM K4Fe(CN)6, 0.15 mM Resazurin and 100 mM Phosphate Buffer) was added to the wells, incubated for 4 hours at 37° C. and 5% CO2 before RFU's (Relative Fluorescence Units) (ex. 540 nm., em. 590 nm.) were measured in a fluororescence plate reader.
(§2) As a counterscreen the same experiment was performed in the presence of 10 ng/ml murine IL3.

[2] = test system: Ba/F3-Flt3-transfected cells; experiment: Ba/F3-Flt3 (plus IL3) cellular proliferation assay, counterscreen with 10 ng/ml murine IL3; type: cell-based; details: plus IL3 (10 ng/ml murine IL3, counterscreen)
Procedure: Ba/F3-Flt3 (Minus IL3 or Plus IL3) (Cellular Proliferation Assay)
as §1, with “Ba/F3-Flt3-transfected” for “Ba/F3-FGFR3-transfected”
as §2

FGFR2 (h) = FGFR2 (h) (Homo sapiens, UniProt P21802); experiment: FGFR2 (enzymatic assay), TR-FRET; type: biochemical; details: average values if tested multiple times
FGFR1 (h) = FGFR1 (h) (Homo sapiens, UniProt P11362); experiment: FGFR1 (enzymatic assay), TR-FRET; type: biochemical; details: average values if tested multiple times
[3] = target: Ba/F3-KDR-transfected cells (Homo sapiens, UniProt P35968); experiment: Ba/F3-KDR (minus IL3) cellular proliferation assay, Alamar Blue; type: cell-based
Procedure: (§3) Ba/F3-KDR (Minus IL3 or Plus IL3) (Cellular Proliferation Assay)
as §1, with “n1” for “nl”, “Ba/F3-KDR-transfected” for “Ba/F3-FGFR3-transfected”, “reader. […]” for “reader.”

FGFR3 (h) = FGFR3 (h) (Homo sapiens, UniProt P22607); experiment: FGFR3 (enzymatic assay), TR-FRET; type: biochemical; details: average values if tested multiple times
[4] = test system: Ba/F3-KDR-transfected cells; experiment: Ba/F3-KDR (plus IL3) cellular proliferation assay, counterscreen with 10 ng/ml murine IL3; type: cell-based; details: plus IL3 (10 ng/ml murine IL3, counterscreen)
Procedure: as §3
as §1, with “n1” for “nl”, “Ba/F3-KDR-transfected” for “Ba/F3-FGFR3-transfected”
as §2

[5] = target: Ba/F3-Flt3-transfected cells (Homo sapiens, UniProt P36888, cells depend on it, form not given); experiment: Ba/F3-Flt3 (minus IL3) cellular proliferation assay, Alamar Blue; type: cell-based
[6] = target: Ba/F3-FGFR1-transfected cells (Homo sapiens, UniProt P11362); experiment: Ba/F3-FGFR1 (minus IL3) cellular proliferation assay, Alamar Blue; type: cell-based
[7] = test system: Ba/F3-FGFR1-transfected cells; experiment: Ba/F3-FGFR1 (plus IL3) cellular proliferation assay, counterscreen with 10 ng/ml murine IL3; type: cell-based; details: plus IL3 (10 ng/ml murine IL3, counterscreen)
Procedure: Ba/F3-FGFR1 (Minus IL3 or Plus IL3) (Cellular Proliferation Assay)
as §1, with “Ba/F3-FGFR1-transfected” for “Ba/F3-FGFR3-transfected”
as §2

KDR (h) = KDR (h) (Homo sapiens, UniProt P35968); experiment: KDR (VEGFR2) (enzymatic assay), TR-FRET; details: average values if tested multiple times
[8] = target: Ba/F3-FGFR3-transfected cells (Homo sapiens, UniProt P22607); experiment: Ba/F3-FGFR3 (minus IL3) cellular proliferation assay, Alamar Blue; type: cell-based
[9] = target: Ba/F3-FGFR4-transfected cells (Homo sapiens, UniProt P22455); experiment: Ba/F3-FGFR4 cellular proliferation assay, Alamar Blue; type: cell-based
FGFR4 (h) = FGFR4 (h) (Homo sapiens, UniProt P22455); experiment: FGFR4 (enzymatic assay), TR-FRET; type: biochemical; details: average values if tested multiple times

Q: Which results are given for `COc1cc(OC)c(F)c(N=c2ccc3ncc(-c4cnn(C)c4)nc3n2CC(O)C(F)(F)F)c1F` (centres unmarked)?
A: BAF3-FGFR3 (PLUS IL3) pIC50 [1]: <5; BAF3_FLT3 (PLUS IL3) pIC50 [2]: <5; FGFR 2 pIC50 (FGFR2 (h)): 8.67; FGFR 1 pIC50 (FGFR1 (h)): 9.35; BAF3-KDR (MIN IL3) pIC50 [3]: 6.05; FGFR 3 pIC50 (FGFR3 (h)): 9.05; BAF3-KDR (PLUS IL3) pIC50 [4]: <5; BAF3-FLT3 (MIN IL3) pIC50 [5]: <5; BAF3-FGFR1 (MIN IL3) pIC50 [6]: 8.10; BAF3-FGFR1 (PLUS IL3) pIC50 [7]: <5; VEGFR 2 (KDR) pIC50 (KDR (h)): 7.93; BAF3-FGFR3 (MIN IL3) pIC50 [8]: 8.05; BAF3-FGFR4 pIC50 [9]: 7.55; FGFR 4 pIC50 (FGFR4 (h)): 9.03

Q: For `COc1cc(OC)cc(N(Cc2nc3ccccc3[nH]2)c2ccc3ncc(-c4cnn(C)c4)nc3n2)c1`, which “BAF3-FGFR3 (PLUS IL3) pIC50” value [1] is on record?
A: The value was under 5.

Q: What about the “FGFR 2 pIC50” value (FGFR2 (h)) of the same compound?
A: Its value is 8.70.

Q: And the “FGFR 1 pIC50” value (FGFR1 (h))?
A: Its value is 8.73.

Q: And the “BAF3-KDR (MIN IL3) pIC50” value [3]?
A: The value was 5.83.

Q: What about the “FGFR 3 pIC50” value (FGFR3 (h)) of the same compound?
A: Its value is 8.92.

Q: And the “BAF3-KDR (PLUS IL3) pIC50” value [4]?
A: The value was under 5.

Q: What about the “BAF3-FGFR1 (MIN IL3) pIC50” value [6] of the same compound?
A: The value was 7.21.

Q: What about the “BAF3-FGFR1 (PLUS IL3) pIC50” value [7] of the same compound?
A: Its value is under 5.

Q: And the “VEGFR 2 (KDR) pIC50” value (KDR (h))?
A: Its value is 7.88.

Q: What about the “BAF3-FGFR3 (MIN IL3) pIC50” value [8] of the same compound?
A: Its value is about 7.64.

Q: And the “BAF3-FGFR4 pIC50” value [9]?
A: The value was 7.06.

Q: What about the “FGFR 4 pIC50” value (FGFR4 (h)) of the same compound?
A: The value was 8.90.
